Reference: publication PMC5581011
These are yes or no findings as the source states them, for the method shown.

Chains of the proteins cited; added tags and fusions are not shown. Residues count along the entry.
UniProt P02769, residues 25-607: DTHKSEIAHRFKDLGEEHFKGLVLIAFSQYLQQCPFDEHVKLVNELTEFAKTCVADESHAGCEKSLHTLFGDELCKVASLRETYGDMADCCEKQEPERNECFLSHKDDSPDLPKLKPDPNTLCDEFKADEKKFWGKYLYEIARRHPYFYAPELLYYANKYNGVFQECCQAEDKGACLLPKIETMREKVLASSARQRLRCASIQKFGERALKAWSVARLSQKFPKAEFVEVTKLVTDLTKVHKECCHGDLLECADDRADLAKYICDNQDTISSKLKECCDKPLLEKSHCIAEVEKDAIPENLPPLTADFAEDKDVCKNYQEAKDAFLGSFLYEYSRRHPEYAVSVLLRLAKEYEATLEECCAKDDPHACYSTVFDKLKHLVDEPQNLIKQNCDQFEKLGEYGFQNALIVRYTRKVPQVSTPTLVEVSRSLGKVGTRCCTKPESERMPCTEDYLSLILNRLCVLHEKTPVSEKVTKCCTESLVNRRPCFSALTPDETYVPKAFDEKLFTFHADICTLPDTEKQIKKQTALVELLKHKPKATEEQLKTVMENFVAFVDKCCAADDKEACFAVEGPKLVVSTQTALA
UniProt P08637, residues 17-254: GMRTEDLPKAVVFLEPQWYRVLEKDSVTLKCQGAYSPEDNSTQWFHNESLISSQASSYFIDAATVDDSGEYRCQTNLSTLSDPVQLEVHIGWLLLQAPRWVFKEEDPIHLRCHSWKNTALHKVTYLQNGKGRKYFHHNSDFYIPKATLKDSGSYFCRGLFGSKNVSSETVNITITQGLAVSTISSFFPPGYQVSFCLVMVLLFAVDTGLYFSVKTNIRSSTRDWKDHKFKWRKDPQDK

Target: serum albumin (coat of control wells in the biological rolling assay) (bovine (BSA in the methods)) (UniProt P02769)
Assay: biological rolling assay (BRA; adherence of receptor-bearing cells to coated U-bottom wells); wells coated overnight with 10 μg/mL protein in 0.2 M bicarbonate pH 9.4 at 4°C, blocked with PBS/1% BSA; 2.5x10^4 Jurkat or CHO transfectants with or without sCA125 in ADCC assay buffer, 37°C, 5 hr; competitors at 50 μg/mL; only the target purified

- binding: no binding
Substance: human CD16a Fc-gamma receptor on Jurkat-CD16a cells (from UniProt P08637 17-254)
